Compound in this assay: CC1Cc2ccccc2N1C(=O)C1CCCN(C1)C(=O)CCl (mixture of isomers) [TRIM25 ligand 11 (diastereomer mixture)]
Nature of the assay: probe-labelled cysteine peptide fold change vs DMSO (competition) (log2 fold change); higher = less target engagement (more negative = stronger competition). Particulars: THP-1, incubation time: 4 h.

Protein sequences, listed by entry. Tags and fused reporters are not part of them. Lines headed by an entry give the natural chain unless they say otherwise; changes in a name come on top.
UniProt O94761: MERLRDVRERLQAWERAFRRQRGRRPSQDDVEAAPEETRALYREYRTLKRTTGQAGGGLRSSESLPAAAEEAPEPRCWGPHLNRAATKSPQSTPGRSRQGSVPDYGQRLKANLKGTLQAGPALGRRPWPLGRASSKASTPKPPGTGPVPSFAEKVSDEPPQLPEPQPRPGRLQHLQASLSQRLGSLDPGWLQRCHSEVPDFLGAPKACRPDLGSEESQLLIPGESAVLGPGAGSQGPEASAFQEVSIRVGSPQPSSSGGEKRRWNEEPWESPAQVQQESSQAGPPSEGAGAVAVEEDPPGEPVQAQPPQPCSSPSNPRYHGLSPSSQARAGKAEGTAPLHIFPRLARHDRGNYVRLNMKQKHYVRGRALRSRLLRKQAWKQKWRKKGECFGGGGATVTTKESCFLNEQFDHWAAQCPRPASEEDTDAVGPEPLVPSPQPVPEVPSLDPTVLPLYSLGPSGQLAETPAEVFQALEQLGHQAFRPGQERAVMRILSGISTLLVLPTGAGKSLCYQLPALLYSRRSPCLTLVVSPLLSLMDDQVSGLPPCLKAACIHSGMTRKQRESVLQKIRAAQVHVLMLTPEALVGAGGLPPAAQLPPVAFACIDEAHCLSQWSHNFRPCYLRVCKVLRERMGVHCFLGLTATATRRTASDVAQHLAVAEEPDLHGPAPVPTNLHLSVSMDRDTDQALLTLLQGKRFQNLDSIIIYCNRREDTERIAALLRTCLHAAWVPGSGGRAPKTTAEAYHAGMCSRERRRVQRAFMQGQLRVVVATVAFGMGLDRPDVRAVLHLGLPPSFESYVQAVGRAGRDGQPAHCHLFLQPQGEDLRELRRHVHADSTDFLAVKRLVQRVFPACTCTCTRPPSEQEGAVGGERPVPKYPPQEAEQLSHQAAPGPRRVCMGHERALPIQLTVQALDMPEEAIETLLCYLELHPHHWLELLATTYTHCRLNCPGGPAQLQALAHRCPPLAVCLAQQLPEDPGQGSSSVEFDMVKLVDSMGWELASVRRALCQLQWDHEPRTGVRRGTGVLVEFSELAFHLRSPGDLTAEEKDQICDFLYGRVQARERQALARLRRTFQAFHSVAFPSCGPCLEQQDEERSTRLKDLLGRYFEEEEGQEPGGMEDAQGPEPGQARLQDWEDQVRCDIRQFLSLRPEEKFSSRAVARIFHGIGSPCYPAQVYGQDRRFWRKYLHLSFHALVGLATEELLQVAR
UniProt P40938, whole entry, looked up: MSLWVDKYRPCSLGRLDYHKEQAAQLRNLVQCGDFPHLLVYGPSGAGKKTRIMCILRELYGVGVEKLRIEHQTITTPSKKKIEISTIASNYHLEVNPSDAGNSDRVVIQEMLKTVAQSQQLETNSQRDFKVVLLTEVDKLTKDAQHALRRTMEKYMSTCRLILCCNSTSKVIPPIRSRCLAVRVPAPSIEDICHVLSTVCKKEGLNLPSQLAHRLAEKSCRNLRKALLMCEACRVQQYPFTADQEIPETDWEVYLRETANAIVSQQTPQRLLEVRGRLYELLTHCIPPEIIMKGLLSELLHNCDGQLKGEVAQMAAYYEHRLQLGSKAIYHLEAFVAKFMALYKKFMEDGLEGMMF
UniProt Q9H871: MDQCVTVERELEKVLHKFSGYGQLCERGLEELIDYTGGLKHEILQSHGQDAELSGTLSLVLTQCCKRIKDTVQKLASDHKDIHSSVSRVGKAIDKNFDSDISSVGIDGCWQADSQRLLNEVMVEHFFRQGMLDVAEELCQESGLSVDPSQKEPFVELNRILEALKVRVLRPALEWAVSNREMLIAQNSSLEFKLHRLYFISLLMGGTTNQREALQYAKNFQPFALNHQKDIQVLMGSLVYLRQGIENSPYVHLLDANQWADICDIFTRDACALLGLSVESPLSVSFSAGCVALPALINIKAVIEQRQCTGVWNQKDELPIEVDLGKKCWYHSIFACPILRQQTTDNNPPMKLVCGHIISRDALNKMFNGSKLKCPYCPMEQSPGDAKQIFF
UniProt Q04206, whole entry, looked up: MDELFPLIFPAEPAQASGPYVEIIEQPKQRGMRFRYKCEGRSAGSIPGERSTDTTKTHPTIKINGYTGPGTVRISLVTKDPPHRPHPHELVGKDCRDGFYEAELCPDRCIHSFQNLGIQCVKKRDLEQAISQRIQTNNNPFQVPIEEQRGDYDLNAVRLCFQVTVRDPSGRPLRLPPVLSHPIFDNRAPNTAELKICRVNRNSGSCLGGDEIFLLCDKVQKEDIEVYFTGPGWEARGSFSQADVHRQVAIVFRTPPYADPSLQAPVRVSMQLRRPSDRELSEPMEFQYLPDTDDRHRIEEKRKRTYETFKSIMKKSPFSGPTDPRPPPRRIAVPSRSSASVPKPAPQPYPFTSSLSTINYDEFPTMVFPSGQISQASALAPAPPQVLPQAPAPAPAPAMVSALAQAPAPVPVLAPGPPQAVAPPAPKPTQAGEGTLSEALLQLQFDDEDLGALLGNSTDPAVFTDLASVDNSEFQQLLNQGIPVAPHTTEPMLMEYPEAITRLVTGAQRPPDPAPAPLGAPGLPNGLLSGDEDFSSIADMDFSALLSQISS
UniProt Q13129: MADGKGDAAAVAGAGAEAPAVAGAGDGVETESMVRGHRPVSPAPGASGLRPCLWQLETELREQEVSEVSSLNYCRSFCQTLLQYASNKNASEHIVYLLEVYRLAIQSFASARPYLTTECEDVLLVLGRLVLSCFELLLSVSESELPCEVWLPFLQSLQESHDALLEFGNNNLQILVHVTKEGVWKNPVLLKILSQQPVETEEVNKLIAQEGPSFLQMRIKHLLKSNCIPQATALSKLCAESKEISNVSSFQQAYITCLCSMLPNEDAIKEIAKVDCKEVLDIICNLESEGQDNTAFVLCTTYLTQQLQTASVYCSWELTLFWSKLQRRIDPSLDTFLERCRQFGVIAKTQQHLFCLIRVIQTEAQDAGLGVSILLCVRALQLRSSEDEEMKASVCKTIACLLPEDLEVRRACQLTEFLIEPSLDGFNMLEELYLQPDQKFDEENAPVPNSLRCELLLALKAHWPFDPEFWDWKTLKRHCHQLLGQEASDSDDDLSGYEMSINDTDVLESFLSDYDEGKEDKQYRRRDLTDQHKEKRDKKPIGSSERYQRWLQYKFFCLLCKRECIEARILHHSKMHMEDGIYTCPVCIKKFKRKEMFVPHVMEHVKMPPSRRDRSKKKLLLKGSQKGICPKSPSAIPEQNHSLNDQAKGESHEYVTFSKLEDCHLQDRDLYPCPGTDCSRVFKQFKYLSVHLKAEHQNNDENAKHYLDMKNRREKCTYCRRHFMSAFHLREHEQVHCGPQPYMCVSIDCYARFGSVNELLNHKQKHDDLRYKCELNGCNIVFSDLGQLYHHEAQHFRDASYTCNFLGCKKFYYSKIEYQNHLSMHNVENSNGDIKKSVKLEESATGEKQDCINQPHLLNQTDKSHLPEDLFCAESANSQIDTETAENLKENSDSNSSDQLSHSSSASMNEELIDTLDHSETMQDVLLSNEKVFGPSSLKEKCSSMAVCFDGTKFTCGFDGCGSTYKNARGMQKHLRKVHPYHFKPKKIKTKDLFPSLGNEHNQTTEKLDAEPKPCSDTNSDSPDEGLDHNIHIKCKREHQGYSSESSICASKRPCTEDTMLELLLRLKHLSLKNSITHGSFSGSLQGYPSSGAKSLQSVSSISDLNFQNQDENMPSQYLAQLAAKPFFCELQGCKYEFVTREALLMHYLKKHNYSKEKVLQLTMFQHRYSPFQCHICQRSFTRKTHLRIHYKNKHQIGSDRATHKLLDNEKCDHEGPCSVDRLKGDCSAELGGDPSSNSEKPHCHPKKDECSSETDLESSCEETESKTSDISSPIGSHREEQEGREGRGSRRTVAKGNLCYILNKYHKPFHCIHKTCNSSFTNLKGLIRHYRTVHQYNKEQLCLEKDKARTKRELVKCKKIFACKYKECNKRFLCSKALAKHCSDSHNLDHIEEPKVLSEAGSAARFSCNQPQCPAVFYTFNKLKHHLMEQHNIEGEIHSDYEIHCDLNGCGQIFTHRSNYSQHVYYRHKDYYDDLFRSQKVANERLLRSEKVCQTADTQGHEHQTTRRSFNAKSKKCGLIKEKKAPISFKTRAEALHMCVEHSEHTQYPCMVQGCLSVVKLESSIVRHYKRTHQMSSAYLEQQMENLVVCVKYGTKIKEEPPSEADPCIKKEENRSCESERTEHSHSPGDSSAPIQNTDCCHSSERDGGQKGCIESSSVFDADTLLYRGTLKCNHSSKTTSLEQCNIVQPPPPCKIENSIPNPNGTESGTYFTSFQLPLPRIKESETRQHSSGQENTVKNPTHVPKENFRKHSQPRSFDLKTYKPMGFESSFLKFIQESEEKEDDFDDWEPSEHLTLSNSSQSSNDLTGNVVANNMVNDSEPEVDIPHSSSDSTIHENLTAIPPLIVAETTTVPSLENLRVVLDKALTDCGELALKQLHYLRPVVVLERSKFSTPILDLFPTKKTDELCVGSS
UniProt Q6R327, whole entry, looked up: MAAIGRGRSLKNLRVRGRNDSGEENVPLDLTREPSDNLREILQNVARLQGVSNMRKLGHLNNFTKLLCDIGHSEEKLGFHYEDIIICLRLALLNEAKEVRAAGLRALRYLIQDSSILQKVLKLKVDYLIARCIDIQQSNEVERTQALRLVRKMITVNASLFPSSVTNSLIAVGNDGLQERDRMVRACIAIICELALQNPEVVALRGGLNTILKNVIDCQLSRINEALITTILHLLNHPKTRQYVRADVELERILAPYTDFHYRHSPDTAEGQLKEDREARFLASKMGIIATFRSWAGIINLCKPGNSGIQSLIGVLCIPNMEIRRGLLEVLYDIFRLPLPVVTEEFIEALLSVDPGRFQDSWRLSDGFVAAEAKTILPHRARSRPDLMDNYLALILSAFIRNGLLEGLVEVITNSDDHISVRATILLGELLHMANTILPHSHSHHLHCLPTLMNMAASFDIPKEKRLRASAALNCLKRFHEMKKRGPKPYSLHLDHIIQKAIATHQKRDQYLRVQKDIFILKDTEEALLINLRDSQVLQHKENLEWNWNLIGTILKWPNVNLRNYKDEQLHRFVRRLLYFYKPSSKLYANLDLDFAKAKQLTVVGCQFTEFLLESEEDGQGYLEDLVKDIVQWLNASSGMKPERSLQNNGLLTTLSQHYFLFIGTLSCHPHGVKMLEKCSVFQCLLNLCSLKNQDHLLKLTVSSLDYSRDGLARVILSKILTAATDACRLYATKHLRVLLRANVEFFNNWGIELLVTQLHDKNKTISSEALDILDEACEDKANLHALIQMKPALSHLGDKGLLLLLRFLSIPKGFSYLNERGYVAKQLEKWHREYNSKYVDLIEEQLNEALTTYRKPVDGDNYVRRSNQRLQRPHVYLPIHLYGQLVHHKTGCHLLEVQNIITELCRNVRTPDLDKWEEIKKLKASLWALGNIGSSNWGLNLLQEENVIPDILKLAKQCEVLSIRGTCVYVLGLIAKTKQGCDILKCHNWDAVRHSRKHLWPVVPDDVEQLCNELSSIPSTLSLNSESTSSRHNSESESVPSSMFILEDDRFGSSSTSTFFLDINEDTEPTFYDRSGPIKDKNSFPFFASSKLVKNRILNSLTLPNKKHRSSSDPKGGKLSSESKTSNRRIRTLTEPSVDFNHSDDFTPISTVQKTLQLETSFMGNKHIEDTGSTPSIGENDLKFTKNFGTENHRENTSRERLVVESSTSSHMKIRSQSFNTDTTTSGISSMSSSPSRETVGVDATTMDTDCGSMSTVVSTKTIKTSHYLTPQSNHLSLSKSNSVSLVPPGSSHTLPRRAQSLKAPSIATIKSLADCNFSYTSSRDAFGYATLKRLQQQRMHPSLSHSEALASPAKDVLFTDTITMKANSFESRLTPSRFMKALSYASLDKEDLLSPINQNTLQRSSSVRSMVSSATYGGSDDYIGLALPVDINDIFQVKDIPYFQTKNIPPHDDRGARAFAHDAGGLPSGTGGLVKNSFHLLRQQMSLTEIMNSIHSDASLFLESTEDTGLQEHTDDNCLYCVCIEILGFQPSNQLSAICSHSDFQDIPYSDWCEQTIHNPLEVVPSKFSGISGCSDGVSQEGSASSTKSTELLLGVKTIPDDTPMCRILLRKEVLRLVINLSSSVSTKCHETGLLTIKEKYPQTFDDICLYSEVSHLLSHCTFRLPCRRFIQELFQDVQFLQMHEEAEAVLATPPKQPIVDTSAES
UniProt Q96TC7: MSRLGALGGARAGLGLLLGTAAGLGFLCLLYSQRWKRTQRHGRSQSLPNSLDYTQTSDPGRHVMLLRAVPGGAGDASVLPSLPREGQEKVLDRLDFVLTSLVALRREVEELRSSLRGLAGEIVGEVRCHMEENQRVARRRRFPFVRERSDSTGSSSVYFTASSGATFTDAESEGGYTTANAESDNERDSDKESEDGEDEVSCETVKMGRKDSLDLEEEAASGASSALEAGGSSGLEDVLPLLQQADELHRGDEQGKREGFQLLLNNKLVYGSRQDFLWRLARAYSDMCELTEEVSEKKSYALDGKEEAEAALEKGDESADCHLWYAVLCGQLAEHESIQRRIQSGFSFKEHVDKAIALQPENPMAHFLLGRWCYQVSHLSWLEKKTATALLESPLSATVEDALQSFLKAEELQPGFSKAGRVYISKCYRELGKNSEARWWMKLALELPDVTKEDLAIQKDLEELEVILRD

The list shows a part of the results.
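Note: competitive chemoproteomic profiling in live THP-1 cells with an iodoacetamide desthiobiotin (IA-DTB) probe, comparing probe-labelled peptide intensities in compound-treated cells against DMSO-treated controls.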

Regarding “RFC5_P40937_238_VTEETVYTCTGHPLK (UniProt P40937)”, the “probe-labelled cysteine peptide fold change” value runs as follows: (10 µM) 0.144; (50 µM) 0.0383.
“RIF1_Q5UIP0_312_SLIDNFALNPDILCSAK (UniProt Q5UIP0)”: the “probe-labelled cysteine peptide fold change” value is, setting by setting: (10 µM) 0.012; (50 µM) 0.0491.
The like results for “RECQL4_O94761_749_TTAEAYHAGMCSR (UniProt O94761)” were, in that order, -0.0321 and -0.0504.
Consider “RFC3_P40938_193_VPAPSIEDICHVLSTVCK (UniProt P40938)”, for which the “probe-labelled cysteine peptide fold change” value reads like this: (10 µM) 0.102; (50 µM) 0.216.
On to “RECQL_P46063_414_DDMKADCILYYGFGDIFR (UniProt P46063)”, for which the “probe-labelled cysteine peptide fold change” value (10 µM) was -0.336 and the “probe-labelled cysteine peptide fold change” value (50 µM) was -0.367.
With “RECQL4_O94761_1088_TFQAFHSVAFPSCGPCLEQQDEER (UniProt O94761)”, the “probe-labelled cysteine peptide fold change” value by setting is: (10 µM) 0.186; (50 µM) -0.324.
As for “RMND5A_Q9H871_354_LVCGHIISR (UniProt Q9H871)”, the “probe-labelled cysteine peptide fold change” value (10 µM) was determined as 0.0141 and the “probe-labelled cysteine peptide fold change” value (50 µM) was -0.0791.
For the target “RNASET2_O00584_121_HGTCAAQVDALNSQK (UniProt O00584)”, the “probe-labelled cysteine peptide fold change” value reads like this: (10 µM) 0.0127; (50 µM) -0.223.
Taken in the same sequence, the figures for “RNF126_Q9BV68_13_YFCHCCSVEIVPR (UniProt Q9BV68)” were 0.17 and 0.0535.
In the case of “RFC2_P35250_255_VCDEPHPLLVK (UniProt P35250)”, the “probe-labelled cysteine peptide fold change” value (10 µM) came out at 0.181 and the “probe-labelled cysteine peptide fold change” value (50 µM) was found to be 0.104.
As to “RELA_Q04206_160_LCFQVTVR (UniProt Q04206)”, the “probe-labelled cysteine peptide fold change” value is -0.145 (10 µM) and 0.0676 (50 µM).
As for “RLF_Q13129_1055_RPCTEDTMLELLLR (UniProt Q13129)”, the “probe-labelled cysteine peptide fold change” value was -0.00543 (10 µM) and -0.22 (50 µM).
Regarding “RFC3_P40938_303_GLLSELLHNCDGQLK (UniProt P40938)”, the “probe-labelled cysteine peptide fold change” value worked out at 0.114 (10 µM) and 0.0584 (50 µM).
Regarding “RICTOR_Q6R327_893_TGCHLLEVQNIITELCR (UniProt Q6R327)”, the “probe-labelled cysteine peptide fold change” value was -0.0249 (10 µM) and -0.134 (50 µM).
As for “RFC4_P35249_48_CVDEVAFQEEVVAVLKK (UniProt P35249)”, the “probe-labelled cysteine peptide fold change” value is -0.204 (10 µM) and -0.325 (50 µM).
On to “RMDN3_Q96TC7_321_GDESADCHLWYAVLCGQLAEHESIQR (UniProt Q96TC7)”, for which the “probe-labelled cysteine peptide fold change” value (10 µM) is 0.145 and the “probe-labelled cysteine peptide fold change” value (50 µM) is -0.116.
As to “RLF_Q13129_663_LEDCHLQDRDLYPCPGTDCSR (UniProt Q13129)”, the “probe-labelled cysteine peptide fold change” value (10 µM) came to 0.218 and the “probe-labelled cysteine peptide fold change” value (50 µM) was found to be 0.0103.
As for “REL_Q04864_208_GGDEIFLLCDK (UniProt Q04864)”, the “probe-labelled cysteine peptide fold change” value was -0.0868 (10 µM) and 0.0839 (50 µM).
On to “RFC3_P40938_230+233_ALLMCEACR (UniProt P40938)”, for which the “probe-labelled cysteine peptide fold change” value (10 µM) came to 0.11 and the “probe-labelled cysteine peptide fold change” value (50 µM) was determined as 0.0343.
The like results for “RLF_Q13129_1317_TCNSSFTNLK (UniProt Q13129)” were, in that order, -0.0044 and 0.125.
Taken in the same sequence, the figures for “RIPOR1_Q6ZS17_945_VLEAVCEFSR (UniProt Q6ZS17)” were 0.0142 and 0.234.
For the target “RFTN1_Q14699_551_ALVGICTGHSNPGEDAR (UniProt Q14699)”, the “probe-labelled cysteine peptide fold change” value reads like this: (10 µM) -0.0992; (50 µM) -0.189.
Take “RMND5A_Q9H871_308_QCTGVWNQK (UniProt Q9H871)”: the “probe-labelled cysteine peptide fold change” value runs as follows: (10 µM) 0.00209; (50 µM) 0.0699.
As for “RHOT1_Q8IXI2_522_IPCLIVAAK (UniProt Q8IXI2)”, the “probe-labelled cysteine peptide fold change” value runs as follows: (10 µM) 0.112; (50 µM) 0.189.
For the target “RENBP_P51606_220_YAELGDWCAR (UniProt P51606)”, the “probe-labelled cysteine peptide fold change” value stood at 0.133 (10 µM) and 0.171 (50 µM).
Turning to “RMC1_Q96DM3_635_GSPNFTPGEHCEEHVAFFK (UniProt Q96DM3)”, the “probe-labelled cysteine peptide fold change” value by setting is: (10 µM) -0.0446; (50 µM) -0.0345.
The like results for “RHOG_P84095_18_TCLLICYTTNAFPK (UniProt P84095)” were, in that order, -0.128 and 0.138.
On to “RICTOR_Q6R327_906_TGCHLLEVQNIITELCR (UniProt Q6R327)”, for which the “probe-labelled cysteine peptide fold change” value was -0.0688 (10 µM) and -0.0297 (50 µM).
